The list does not hold the whole screen: it is rich in T/C values a quarter to a half above the control, in often repeated tests (any T/C) and in doses without a T/C. Other doses and runs of a compound stand elsewhere. T/C: endpoint of the treated group in % of that of the vehicle group. Some entries give survivors of the animals treated and no T/C: the source files T/C as zero there, which appears to mark a toxic dose or a test without result, not a measured value. Some doses without a T/C left all or most animals alive at the check, yet need not have been tolerated: the source hardly ever lists a survival T/C far under the control, and the zero likely stands for such cases as well. Survivors were counted at the toxicity check, usually on the fifth day, unless a day is given; later deaths do not show. Schedules are NCI's codes, taken here to give the interval after Q, in days (D) or hours (H), and the number of doses after X. Some molecules as drawn cover several salts, stereoisomers or complexes of the source; a dose is that of the sample tested. Counts like (3×) stand for listed records that agree. Some entries were tested several times; the results are listed from low to high. Where survival is the endpoint, the PubChem record calls one and a half times the control and up active, and a quarter to a half above the control has no call in these data; cut-offs in other NCI protocols can differ. Some schedules carry Z or #; the key to these is not given. Some T/C values are followed by the survivors on the day toxicity was checked, most often the fifth; without a count, all were alive then.
System: L1210 leukemia ip in BDF1 mice, survival T/C
Assay: NCI In Vivo Anticancer Drug Screen. Data for tumor model L1210 Leukemia (intraperitoneal) in B6D2F1 (BDF1) mice
Conditions: T/C endpoint: mean survival time, higher T/C = longer survival
[1] = dose: 64.0 mg/kg/injection, schedule: Q01DX009 (ip), vehicle: Klucel (hydroxypropylcellulose) (HPC)

Cc1c2ccncc2c(C)c2c1[nH]c1ccccc12
T/C (dose: 37.5 mg/kg/injection, schedule: Q01DX009 (ip), vehicle: Klucel (hydroxypropylcellulose) (HPC)): 130 % of control [5 of 6 alive] | survivor count (dose: 37.5 mg/kg/injection, schedule: Q03HX008 (ip), vehicle: other): 0 of 8 | survivor count (dose: 37.5 mg/kg/injection, schedule: Q03HX008 (ip), vehicle: steroid suspending solution): 7 of 8 | survivor count (dose: 37.5 mg/kg/injection, schedule: Q03HX016 (ip), vehicle: other): 0 of 8 | survivor count (dose: 37.5 mg/kg/injection, schedule: Q03HX016 (ip), vehicle: steroid suspending solution): 8 of 8 | T/C (dose: 37.5 mg/kg/injection, schedule: Q04DX003 (ip), vehicle: Klucel (hydroxypropylcellulose) (HPC), evaluated on day 5): 155 and 159 % of control | T/C (dose: 37.5 mg/kg/injection, schedule: Q04DX003 (ip), vehicle: Klucel (hydroxypropylcellulose) (HPC), evaluated on day 30): 164 % of control | T/C (dose: 37.5 mg/kg/injection, schedule: Q04DX003 (ip), vehicle: Klucel (hydroxypropylcellulose) (HPC), evaluated on day 60): 147, 155, 159 (2×), 211 % of control | T/C (dose: 37.5 mg/kg/injection, schedule: Q04DX003 (ip), vehicle: water): 133 % of control | T/C (dose: 40.0 mg/kg/injection, schedule: Q01DX001 (ip), vehicle: acid diluted with saline): 129 % of control | T/C (dose: 40.0 mg/kg/injection, schedule: Q01DX001 (ip), vehicle: other): 125 % of control | T/C (dose: 40.0 mg/kg/injection, schedule: Q01DX009 (oral), vehicle: carboxymethylcellulose (CMC)): 149 % of control | T/C (dose: 40.0 mg/kg/injection, schedule: Q01DX015 (oral), vehicle: carboxymethylcellulose (CMC)): 130 % of control | survivor count (dose: 40.0 mg/kg/injection, schedule: Q03HX008 (ip), vehicle: acid diluted with saline): 10 of 10 | T/C (dose: 40.0 mg/kg/injection, schedule: Q04DX003 (ip), vehicle: saline with Tween-80): 130 and 135 % of control | T/C (dose: 40.0 mg/kg/injection, schedule: Q04DX009 (ip), vehicle: Klucel (hydroxypropylcellulose) (HPC)): 130 % of control | T/C (dose: 40.0 mg/kg/injection, schedule: Q## X008 (ip), vehicle: other): 142 % of control | T/C (dose: 44.0 mg/kg/injection, schedule: Q01DX009 (ip), vehicle: saline): 142 % of control | T/C (dose: 50.0 mg/kg/injection, schedule: Q01DX001 (ip), vehicle: saline): 125 % of control | T/C (dose: 50.0 mg/kg/injection, schedule: Q01DX001 (oral), vehicle: saline with Tween-80): 128 and 140 % of control | T/C (dose: 50.0 mg/kg/injection, schedule: Q01DX001 (oral), vehicle: water): 125 % of control | T/C (dose: 50.0 mg/kg/injection, schedule: Q01DX005 (oral), vehicle: saline): 139 % of control | survivor count (dose: 50.0 mg/kg/injection, schedule: Q01DX009 (ip), vehicle: citric acid): 8 of 10 and 10 of 10 | survivor count (dose: 50.0 mg/kg/injection, schedule: Q01DX009 (ip), vehicle: clinical formulation): 9 of 10 and 10 of 10 | T/C (dose: 50.0 mg/kg/injection, schedule: Q01DX Z (ip), vehicle: saline): 143 % of control | T/C (dose: 50.0 mg/kg/injection, schedule: Q01DX Z (oral), vehicle: saline): 130 % of control | T/C (dose: 50.0 mg/kg/injection, schedule: Q04DX003 (ip), vehicle: citric acid): 130 % of control | T/C (dose: 50.0 mg/kg/injection, schedule: Q04DX003 (ip), vehicle: clinical formulation): 145 % of control | T/C (dose: 50.0 mg/kg/injection, schedule: Q04DX003 (ip), vehicle: saline with Tween-80): 132, 152, 154, 157, 185 % of control | T/C (dose: 50.0 mg/kg/injection, schedule: Q04DX003 (ip), vehicle: saline): 145 % of control | T/C (dose: 50.0 mg/kg/injection, schedule: Q04DX003 (oral), vehicle: saline): 147 % of control | T/C [1]: 105, 107 [4 of 6 alive], 115, 134 % of control | survivor count [1]: 6 of 6 | survivor count (dose: 64.0 mg/kg/injection, schedule: Q01DX009 (ip), vehicle: clinical formulation): 5 of 10 | T/C (dose: 64.0 mg/kg/injection, schedule: Q01DX009 (ip), vehicle: other, evaluated on day 30): 115 % of control | T/C (dose: 64.0 mg/kg/injection, schedule: Q01DX009 (ip), vehicle: other, evaluated on day 40): 184 % of control | survivor count (dose: 64.0 mg/kg/injection, schedule: Q01DX009 (ip), vehicle: other): 10 of 10 (2×) | T/C (dose: 64.0 mg/kg/injection, schedule: Q01DX009 (ip), vehicle: saline with Tween-80, evaluated on day 30): 86, 88 [5 of 6 alive], 94, 103, 108, 109, 116, 124 % of control | T/C (dose: 64.0 mg/kg/injection, schedule: Q01DX009 (ip), vehicle: saline with Tween-80, evaluated on day 60): 101 and 107 % of control [9 of 10 alive] | survivor count (dose: 64.0 mg/kg/injection, schedule: Q01DX009 (ip), vehicle: saline with Tween-80): 6 of 6 | T/C (dose: 64.0 mg/kg/injection, schedule: Q01DX009 (ip), vehicle: saline, evaluated on day 23): 101 % of control | T/C (dose: 64.0 mg/kg/injection, schedule: Q01DX009 (ip), vehicle: saline, evaluated on day 30): 141 % of control [9 of 10 alive] | survivor count (dose: 64.0 mg/kg/injection, schedule: Q01DX009 (ip), vehicle: saline): 4 of 6
